Source: PMC4883783
No constants are given. Whether binding was seen depends on the method and setting.

Protein sequences, listed by entry. Tags and fused reporters are not part of them. Residues count along the entry.
UniProt O75636, residues 24-299: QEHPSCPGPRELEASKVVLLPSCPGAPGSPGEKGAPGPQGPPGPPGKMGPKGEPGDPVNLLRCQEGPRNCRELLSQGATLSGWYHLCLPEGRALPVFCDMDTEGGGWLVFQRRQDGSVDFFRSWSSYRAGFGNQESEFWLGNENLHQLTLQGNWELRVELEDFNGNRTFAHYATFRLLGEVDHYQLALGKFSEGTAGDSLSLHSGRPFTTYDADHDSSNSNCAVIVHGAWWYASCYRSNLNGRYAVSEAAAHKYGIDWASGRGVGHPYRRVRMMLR
UniProt P11226, residues 21-248: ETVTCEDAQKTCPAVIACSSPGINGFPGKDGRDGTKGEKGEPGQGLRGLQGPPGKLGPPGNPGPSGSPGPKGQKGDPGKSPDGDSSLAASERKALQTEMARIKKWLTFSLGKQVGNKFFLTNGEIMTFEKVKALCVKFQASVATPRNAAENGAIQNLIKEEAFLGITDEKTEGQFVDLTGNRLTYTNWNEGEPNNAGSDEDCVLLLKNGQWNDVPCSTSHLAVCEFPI

Biological target: Recombinant human ficolin-3 protein (human) (UniProt O75636)
Experiment: SPR; Biacore T200; recombinant ficolin-3 amine-coupled to a CM5 chip (15,300 RU); reference flow cell with 12000 RU of BSA; analytes injected at 30 μl/min for 150 s; 0.01 M HEPES pH 7.4, 0.15 M NaCl, 0.005% P20, 5 mM MgCl2, 5 mM CaCl2; regeneration 0.5% SDS; both purified

Recombinant human MBL protein (from UniProt P11226 21-248)
binding: no binding
